{"source": "patent US20170305981A1", "about": "“SYNTHETIC PEPTIDES” (The University of Chicago, priority 2014, published 2017)", "assay": "Circular dichroism spectroscopy of peptide folding", "type": "physicochemical", "experimental": "FIG. 10. AV199-232 is an a-helical peptide that binds heparin. Peptide folding and conformation was analyzed experimentally by circular dichroism spectroscopy (A) and calculated to be ˜42% α-helical which increased to ˜76% on binding heparin.\nGiven that there appeared to be a periodicity in the sequence of AV199-232 consisting of alternating polar and non-polar residues, the possibility that the peptide was folded into a amphipathic α-helix was investigated (FIG. 10). […] In silico analysis also predicted a high α-helical content. […] The amphipathic nature of the peptide was evident with polar residues and nonpolar residues (domain-L) organized to opposite sides of the helix. Domain-L is responsible for binding to VLDL. Domain-1, domain-2 and domain-H were also identified on the polar side."}
{"substance": "AV199-232: 34-residue peptide, residues 199-232 of apoA-V; AV199-237 shortened by 5 residues (ARLSRCVQVLSRKLTLKAKALHARIQQNLDQLRE; listed as Homo sapiens)", "values": [{"measurement": "α-helical content", "setting": "peptide alone", "result": "~42", "unit": "%"}, {"measurement": "α-helical content on binding heparin", "setting": "with heparin", "result": "~76", "unit": "%"}]}
